No constants are given. Whether binding was seen depends on the method and setting. In cells and extracts the contact can be indirect. Here binding means that the protein was enriched with, or labelled near, the bait; the list need not be complete. For some of these results: Sequences can lack the tags named with a protein. Values belong to the molecule of their own block, whether it stands above or below them.
Legend:
[1] = target: T1, FLAG-BirA*-RAD54L2 (human) (UniProt Q9Y4B4); test: proximity labelling; BioID with BirA*-RAD54L2 in HEK293; doxycycline and 50 uM biotin for 24 h; streptavidin-sepharose, mass spectrometry; BFDR <=0.01
T1 sequence: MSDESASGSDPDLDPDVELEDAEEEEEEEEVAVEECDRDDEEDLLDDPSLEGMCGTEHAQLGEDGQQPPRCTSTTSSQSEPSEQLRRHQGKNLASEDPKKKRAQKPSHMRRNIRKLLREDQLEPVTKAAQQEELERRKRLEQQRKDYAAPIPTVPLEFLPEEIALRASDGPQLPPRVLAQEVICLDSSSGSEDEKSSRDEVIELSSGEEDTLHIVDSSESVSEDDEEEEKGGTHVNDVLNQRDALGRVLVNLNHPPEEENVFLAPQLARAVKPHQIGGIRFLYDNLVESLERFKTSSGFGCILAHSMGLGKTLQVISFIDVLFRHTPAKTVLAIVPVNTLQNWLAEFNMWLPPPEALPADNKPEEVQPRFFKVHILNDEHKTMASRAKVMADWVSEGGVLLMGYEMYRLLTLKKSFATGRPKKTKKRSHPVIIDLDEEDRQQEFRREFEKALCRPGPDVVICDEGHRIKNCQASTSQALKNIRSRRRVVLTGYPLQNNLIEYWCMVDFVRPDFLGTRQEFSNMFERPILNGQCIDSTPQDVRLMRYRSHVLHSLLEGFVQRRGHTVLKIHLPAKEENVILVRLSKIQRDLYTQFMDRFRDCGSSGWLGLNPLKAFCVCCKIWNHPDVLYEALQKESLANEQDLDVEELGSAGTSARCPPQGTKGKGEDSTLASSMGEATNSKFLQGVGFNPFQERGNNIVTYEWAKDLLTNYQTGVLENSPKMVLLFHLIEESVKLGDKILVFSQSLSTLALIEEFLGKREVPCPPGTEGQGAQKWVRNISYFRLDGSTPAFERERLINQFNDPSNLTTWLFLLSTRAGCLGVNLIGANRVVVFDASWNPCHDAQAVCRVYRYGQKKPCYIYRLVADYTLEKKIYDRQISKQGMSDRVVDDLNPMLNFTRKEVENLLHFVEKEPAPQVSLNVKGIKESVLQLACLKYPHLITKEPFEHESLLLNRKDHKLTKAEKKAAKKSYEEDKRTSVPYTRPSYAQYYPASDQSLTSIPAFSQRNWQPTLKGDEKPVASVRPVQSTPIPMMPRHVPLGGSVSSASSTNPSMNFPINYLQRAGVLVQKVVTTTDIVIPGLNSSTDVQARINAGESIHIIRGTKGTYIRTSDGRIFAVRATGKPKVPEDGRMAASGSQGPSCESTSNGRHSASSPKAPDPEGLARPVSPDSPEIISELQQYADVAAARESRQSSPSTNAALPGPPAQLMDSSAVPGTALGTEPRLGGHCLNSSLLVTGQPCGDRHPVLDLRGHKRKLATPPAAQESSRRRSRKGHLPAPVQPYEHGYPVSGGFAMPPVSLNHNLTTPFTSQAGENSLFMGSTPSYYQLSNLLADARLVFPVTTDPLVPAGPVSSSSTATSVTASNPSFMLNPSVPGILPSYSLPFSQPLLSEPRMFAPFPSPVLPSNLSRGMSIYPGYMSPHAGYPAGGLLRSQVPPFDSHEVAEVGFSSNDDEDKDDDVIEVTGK

Sequences of proteins named here, by UniProt entry; tags and fusion partners are left off.
UniProt P54132: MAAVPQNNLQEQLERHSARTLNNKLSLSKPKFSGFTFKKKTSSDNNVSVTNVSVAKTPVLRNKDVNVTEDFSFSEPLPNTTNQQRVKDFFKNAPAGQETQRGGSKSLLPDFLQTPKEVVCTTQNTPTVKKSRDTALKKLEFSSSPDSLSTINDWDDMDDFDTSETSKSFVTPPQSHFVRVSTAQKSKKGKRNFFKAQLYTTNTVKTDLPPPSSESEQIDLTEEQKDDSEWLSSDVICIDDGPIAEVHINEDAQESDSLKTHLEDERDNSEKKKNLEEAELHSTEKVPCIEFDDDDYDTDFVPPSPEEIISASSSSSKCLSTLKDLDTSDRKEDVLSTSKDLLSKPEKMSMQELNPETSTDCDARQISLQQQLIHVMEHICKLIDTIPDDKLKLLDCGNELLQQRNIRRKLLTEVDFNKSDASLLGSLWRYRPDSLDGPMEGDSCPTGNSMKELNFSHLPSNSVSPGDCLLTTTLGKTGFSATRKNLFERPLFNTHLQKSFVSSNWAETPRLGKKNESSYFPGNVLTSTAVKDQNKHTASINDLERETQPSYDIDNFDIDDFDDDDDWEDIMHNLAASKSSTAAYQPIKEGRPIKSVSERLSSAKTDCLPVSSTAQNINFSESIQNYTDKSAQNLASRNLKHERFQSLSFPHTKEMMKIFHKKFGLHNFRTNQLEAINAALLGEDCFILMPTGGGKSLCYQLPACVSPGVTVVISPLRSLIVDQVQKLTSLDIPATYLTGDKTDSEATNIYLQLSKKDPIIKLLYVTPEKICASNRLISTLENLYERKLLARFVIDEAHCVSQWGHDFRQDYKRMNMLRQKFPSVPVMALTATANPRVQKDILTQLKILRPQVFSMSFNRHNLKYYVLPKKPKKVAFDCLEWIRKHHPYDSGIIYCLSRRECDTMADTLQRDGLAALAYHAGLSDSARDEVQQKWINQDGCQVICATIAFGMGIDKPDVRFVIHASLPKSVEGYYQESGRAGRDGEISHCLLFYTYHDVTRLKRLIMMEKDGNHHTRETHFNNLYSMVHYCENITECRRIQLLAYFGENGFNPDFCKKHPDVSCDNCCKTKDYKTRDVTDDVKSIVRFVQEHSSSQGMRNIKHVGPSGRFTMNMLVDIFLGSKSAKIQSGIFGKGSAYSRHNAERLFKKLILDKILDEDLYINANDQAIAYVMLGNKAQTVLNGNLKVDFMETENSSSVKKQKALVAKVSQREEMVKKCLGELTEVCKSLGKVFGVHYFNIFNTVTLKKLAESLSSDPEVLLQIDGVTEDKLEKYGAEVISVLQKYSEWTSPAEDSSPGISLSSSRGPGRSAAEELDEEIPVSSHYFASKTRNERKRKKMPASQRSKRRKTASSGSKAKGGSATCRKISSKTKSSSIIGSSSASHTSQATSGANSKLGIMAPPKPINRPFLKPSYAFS
UniProt Q8IY92: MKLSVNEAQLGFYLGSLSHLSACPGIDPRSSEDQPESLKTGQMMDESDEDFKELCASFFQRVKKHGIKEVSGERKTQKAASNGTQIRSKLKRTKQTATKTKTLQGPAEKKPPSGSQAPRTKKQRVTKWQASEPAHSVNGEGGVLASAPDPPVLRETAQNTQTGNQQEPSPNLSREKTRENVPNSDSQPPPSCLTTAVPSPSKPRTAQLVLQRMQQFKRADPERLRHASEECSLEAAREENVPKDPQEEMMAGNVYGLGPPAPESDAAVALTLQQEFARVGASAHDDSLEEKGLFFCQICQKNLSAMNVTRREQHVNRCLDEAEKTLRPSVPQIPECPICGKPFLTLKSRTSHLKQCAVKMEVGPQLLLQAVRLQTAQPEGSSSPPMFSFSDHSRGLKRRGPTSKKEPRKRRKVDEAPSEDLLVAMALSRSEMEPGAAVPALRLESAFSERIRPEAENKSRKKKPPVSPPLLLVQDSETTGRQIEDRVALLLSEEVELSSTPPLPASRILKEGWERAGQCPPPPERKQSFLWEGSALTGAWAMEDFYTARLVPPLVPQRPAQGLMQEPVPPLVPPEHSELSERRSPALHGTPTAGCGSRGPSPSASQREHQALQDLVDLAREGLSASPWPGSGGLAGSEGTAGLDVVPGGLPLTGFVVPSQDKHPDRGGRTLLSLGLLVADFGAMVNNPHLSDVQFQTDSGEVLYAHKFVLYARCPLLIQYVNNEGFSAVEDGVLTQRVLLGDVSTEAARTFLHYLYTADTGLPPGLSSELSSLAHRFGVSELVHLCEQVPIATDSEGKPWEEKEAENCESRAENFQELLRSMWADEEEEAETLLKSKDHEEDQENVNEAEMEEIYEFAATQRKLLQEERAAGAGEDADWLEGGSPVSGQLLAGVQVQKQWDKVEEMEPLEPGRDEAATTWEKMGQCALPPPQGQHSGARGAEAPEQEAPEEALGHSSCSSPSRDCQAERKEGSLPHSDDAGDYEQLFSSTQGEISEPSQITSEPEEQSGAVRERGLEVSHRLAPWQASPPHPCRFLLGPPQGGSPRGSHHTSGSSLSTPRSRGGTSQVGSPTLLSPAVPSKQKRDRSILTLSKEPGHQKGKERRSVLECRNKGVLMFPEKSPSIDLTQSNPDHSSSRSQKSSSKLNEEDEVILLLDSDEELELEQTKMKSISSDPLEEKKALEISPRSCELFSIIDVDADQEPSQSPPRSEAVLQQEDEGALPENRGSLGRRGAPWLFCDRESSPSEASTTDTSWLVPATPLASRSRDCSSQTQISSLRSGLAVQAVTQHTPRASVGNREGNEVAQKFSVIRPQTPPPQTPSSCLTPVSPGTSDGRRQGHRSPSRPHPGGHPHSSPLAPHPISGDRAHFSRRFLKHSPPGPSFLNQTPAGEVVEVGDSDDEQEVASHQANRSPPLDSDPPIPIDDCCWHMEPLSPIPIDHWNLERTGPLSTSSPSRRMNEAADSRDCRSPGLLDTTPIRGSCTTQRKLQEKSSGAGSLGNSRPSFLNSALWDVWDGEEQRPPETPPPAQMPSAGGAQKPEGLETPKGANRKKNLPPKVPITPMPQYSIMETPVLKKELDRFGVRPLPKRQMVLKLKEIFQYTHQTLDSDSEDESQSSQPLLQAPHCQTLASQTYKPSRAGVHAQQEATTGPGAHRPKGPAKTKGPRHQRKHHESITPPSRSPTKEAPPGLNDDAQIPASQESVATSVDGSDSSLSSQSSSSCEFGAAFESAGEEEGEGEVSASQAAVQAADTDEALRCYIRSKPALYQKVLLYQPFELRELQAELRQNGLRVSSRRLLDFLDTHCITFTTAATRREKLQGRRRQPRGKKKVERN
UniProt Q92878: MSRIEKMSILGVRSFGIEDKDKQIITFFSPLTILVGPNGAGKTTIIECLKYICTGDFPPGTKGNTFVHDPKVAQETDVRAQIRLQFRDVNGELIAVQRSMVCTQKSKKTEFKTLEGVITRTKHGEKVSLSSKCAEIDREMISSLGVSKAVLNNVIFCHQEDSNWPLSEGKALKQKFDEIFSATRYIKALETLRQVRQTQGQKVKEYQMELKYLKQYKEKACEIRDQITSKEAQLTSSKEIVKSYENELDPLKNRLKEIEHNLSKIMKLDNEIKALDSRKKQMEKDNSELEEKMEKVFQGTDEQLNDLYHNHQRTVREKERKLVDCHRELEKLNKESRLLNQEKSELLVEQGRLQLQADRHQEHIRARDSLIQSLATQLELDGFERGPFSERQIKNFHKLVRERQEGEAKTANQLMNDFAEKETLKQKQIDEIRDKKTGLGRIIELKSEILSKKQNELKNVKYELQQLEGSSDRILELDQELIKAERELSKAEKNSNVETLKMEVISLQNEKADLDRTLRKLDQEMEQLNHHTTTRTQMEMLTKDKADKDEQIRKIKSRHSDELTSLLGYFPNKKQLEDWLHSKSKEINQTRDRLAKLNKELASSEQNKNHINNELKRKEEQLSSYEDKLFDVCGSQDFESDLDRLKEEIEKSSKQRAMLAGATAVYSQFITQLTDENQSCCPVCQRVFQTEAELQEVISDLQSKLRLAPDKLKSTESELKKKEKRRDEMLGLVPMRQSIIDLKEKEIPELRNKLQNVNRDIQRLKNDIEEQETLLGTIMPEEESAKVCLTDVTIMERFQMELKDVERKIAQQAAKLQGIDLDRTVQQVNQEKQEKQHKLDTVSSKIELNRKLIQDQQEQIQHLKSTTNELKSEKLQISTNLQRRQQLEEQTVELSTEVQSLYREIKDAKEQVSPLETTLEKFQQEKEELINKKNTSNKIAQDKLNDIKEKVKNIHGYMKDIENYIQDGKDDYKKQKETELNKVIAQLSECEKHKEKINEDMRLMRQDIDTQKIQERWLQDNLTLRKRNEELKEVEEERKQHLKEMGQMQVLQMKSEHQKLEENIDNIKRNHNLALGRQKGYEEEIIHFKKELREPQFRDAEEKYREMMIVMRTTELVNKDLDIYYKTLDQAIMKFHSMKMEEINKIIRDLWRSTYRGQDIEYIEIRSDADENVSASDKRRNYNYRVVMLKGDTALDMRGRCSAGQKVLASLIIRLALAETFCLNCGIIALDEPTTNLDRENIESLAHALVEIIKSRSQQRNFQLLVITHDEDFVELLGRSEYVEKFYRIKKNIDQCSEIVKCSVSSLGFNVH

[2] = target: BLM fused to a biotin ligase (at least one of the BLM fusions BirA*-BLM, mT-BLM, BLM-mT; which one is not told) (human) (UniProt P54132); test: proximity labelling; the three BLM BioID screens combined (BirA*-BLM, mT-BLM, BLM-mT); prey found with at least one BLM fusion; mass spectrometry, BFDR <=0.01
[3] = target: FLAG-miniTurbo-BLM (human) (UniProt P54132); test: proximity labelling; miniTurbo fusions of BLM in HEK293; doxycycline, 50 uM biotin for 30 min; RIPA lysis, streptavidin-sepharose, mass spectrometry; SAINTexpress BFDR <=0.01
[4] = target: FLAG-miniTurbo-BLM (human) (UniProt P54132); test: proximity labelling; extracts of cells with or without doxycycline induction, streptavidin-agarose affinity purification of biotinylated proteins, immunoblot with anti-RAD54L2
FLAG-BirA*-BLM (human) = FLAG-BirA*-BLM (human) (UniProt P54132); test: proximity labelling; BioID with N-terminal BirA* fusions of BLM, TOP3A, RMI1 or RMI2 in HEK293; doxycycline and 50 uM biotin for 24 h; RIPA lysis, streptavidin-sepharose, mass spectrometry; SAINTexpress BFDR <=0.01

Molecule: BLM (from UniProt P54132 1-1417)
- binding [1]: binds

B2: RMI1 (protein, UniProt Q9H9A7 1-625)
chain: MNVTSIALRAETWLLAAWHVKVPPMWLEACINWIQEENNNVNLSQAQMNKQVFEQWLLTDLRDLEHPLLPDGILEIPKGELNGFYALQINSLVDVSQPAYSQIQKLRGKNTTNDLVTAEAQVTPKPWEAKPSRMLMLQLTDGIVQIQGMEYQPIPILHSDLPPGTKILIYGNISFRLGVLLLKPENVKVLGGEVDALLEEYAQEKVLARLIGEPDLVVSVIPNNSNENIPRVTDVLDPALGPSDEELLASLDENDELTANNDTSSERCFTTGSSSNTIPTRQSSFEPEFVISPRPKEEPSNLSIHVMDGELDDFSLEEALLLEETVQKEQMETKELQPLTFNRNADRSIERFSHNPNTTNNFSLTCKNGNNNWSEKNVSEQMTNEDKSFGCPSVRDQNRSIFSVHCNVPLAHDFTNKEKNLETDNKIKQTSSSDSHSLNNKILNREVVNYVQKRNSQISNENDCNLQSCSLRSSENSINLSIAMDLYSPPFVYLSVLMASKPKEVTTVKVKAFIVTLTGNLSSSGGIWSITAKVSDGTAYLDVDFVDEILTSLIGFSVPEMKQSKKDPLQYQKFLEGLQKCQRDLIDLCCLMTISFNPSLSKAMVLALQDVNMEHLENLKKRLNK
- binding [1]: binds

B3: RAD54L2 (protein, UniProt Q9Y4B4 1-1467)
chain: T1 sequence
- binding [3]: binds
- binding [4]: binds
- binding (FLAG-BirA*-BLM (human)): binds

Results, then the molecule that gave them:

- binding [1]: binds
- binding [2]: binds
Molecule: SLX4 (from UniProt Q8IY92 1-1834)

- binding [1]: binds
- binding [2]: binds
Molecule: RAD50 (from UniProt Q92878 1-1312)

- binding [1]: binds
B1: TOP3A (protein, UniProt Q13472 1-1001)
chain: MIFPVARYALRWLRRPEDRAFSRAAMEMALRGVRKVLCVAEKNDAAKGIADLLSNGRMRRREGLSKFNKIYEFDYHLYGQNVTMVMTSVSGHLLAHDFQMQFRKWQSCNPLVLFEAEIEKYCPENFVDIKKTLERETRQCQALVIWTDCDREGENIGFEIIHVCKAVKPNLQVLRARFSEITPHAVRTACENLTEPDQRVSDAVDVRQELDLRIGAAFTRFQTLRLQRIFPEVLAEQLISYGSCQFPTLGFVVERFKAIQAFVPEIFHRIKVTHDHKDGIVEFNWKRHRLFNHTACLVLYQLCVEDPMATVVEVRSKPKSKWRPQALDTVELEKLASRKLRINAKETMRIAEKLYTQGYISYPRTETNIFPRDLNLTVLVEQQTPDPRWGAFAQSILERGGPTPRNGNKSDQAHPPIHPTKYTNNLQGDEQRLYEFIVRHFLACCSQDAQGQETTVEIDIAQERFVAHGLMILARNYLDVYPYDHWSDKILPVYEQGSHFQPSTVEMVDGETSPPKLLTEADLIALMEKHGIGTDATHAEHIETIKARMYVGLTPDKRFLPGHLGMGLVEGYDSMGYEMSKPDLRAELEADLKLICDGKKDKFVVLRQQVQKYKQVFIEAVAKAKKLDEALAQYFGNGTELAQQEDIYPAMPEPIRKCPQCNKDMVLKTKKNGGFYLSCMGFPECRSAVWLPDSVLEASRDSSVCPVCQPHPVYRLKLKFKRGSLPPTMPLEFVCCIGGCDDTLREILDLRFSGGPPRASQPSGRLQANQSLNRMDNSQHPQPADSRQTGSSKALAQTLPPPTAAGESNSVTCNCGQEAVLLTVRKEGPNRGRQFFKCNGGSCNFFLWADSPNPGAGGPPALAYRPLGASLGCPPGPGIHLGGFGNPGDGSGSGTSCLCSQPSVTRTVQKDGPNKGRQFHTCAKPREQQCGFFQWVDENTAPGTSGAPSWTGDRGRTLESEARSKRPRASSSDMGSTAKKPRKCSLCHQPGHTRPFCPQNR

— article PMC11894219
